According to patent US20130230532A1 (HONG KONG UNIVERSITY OF SCIENCE AND TECHNOLOGY, published 2013):
No constants are given. Whether binding was seen depends on the method and setting. Binding seen in cells or lysates may run through a third protein. Some binding calls cover weakened binding; strength is not graded here. Sequences can lack the tags named with a protein.

Amino acid sequences for entries named in this document (tags omitted).
UniProt Q99996: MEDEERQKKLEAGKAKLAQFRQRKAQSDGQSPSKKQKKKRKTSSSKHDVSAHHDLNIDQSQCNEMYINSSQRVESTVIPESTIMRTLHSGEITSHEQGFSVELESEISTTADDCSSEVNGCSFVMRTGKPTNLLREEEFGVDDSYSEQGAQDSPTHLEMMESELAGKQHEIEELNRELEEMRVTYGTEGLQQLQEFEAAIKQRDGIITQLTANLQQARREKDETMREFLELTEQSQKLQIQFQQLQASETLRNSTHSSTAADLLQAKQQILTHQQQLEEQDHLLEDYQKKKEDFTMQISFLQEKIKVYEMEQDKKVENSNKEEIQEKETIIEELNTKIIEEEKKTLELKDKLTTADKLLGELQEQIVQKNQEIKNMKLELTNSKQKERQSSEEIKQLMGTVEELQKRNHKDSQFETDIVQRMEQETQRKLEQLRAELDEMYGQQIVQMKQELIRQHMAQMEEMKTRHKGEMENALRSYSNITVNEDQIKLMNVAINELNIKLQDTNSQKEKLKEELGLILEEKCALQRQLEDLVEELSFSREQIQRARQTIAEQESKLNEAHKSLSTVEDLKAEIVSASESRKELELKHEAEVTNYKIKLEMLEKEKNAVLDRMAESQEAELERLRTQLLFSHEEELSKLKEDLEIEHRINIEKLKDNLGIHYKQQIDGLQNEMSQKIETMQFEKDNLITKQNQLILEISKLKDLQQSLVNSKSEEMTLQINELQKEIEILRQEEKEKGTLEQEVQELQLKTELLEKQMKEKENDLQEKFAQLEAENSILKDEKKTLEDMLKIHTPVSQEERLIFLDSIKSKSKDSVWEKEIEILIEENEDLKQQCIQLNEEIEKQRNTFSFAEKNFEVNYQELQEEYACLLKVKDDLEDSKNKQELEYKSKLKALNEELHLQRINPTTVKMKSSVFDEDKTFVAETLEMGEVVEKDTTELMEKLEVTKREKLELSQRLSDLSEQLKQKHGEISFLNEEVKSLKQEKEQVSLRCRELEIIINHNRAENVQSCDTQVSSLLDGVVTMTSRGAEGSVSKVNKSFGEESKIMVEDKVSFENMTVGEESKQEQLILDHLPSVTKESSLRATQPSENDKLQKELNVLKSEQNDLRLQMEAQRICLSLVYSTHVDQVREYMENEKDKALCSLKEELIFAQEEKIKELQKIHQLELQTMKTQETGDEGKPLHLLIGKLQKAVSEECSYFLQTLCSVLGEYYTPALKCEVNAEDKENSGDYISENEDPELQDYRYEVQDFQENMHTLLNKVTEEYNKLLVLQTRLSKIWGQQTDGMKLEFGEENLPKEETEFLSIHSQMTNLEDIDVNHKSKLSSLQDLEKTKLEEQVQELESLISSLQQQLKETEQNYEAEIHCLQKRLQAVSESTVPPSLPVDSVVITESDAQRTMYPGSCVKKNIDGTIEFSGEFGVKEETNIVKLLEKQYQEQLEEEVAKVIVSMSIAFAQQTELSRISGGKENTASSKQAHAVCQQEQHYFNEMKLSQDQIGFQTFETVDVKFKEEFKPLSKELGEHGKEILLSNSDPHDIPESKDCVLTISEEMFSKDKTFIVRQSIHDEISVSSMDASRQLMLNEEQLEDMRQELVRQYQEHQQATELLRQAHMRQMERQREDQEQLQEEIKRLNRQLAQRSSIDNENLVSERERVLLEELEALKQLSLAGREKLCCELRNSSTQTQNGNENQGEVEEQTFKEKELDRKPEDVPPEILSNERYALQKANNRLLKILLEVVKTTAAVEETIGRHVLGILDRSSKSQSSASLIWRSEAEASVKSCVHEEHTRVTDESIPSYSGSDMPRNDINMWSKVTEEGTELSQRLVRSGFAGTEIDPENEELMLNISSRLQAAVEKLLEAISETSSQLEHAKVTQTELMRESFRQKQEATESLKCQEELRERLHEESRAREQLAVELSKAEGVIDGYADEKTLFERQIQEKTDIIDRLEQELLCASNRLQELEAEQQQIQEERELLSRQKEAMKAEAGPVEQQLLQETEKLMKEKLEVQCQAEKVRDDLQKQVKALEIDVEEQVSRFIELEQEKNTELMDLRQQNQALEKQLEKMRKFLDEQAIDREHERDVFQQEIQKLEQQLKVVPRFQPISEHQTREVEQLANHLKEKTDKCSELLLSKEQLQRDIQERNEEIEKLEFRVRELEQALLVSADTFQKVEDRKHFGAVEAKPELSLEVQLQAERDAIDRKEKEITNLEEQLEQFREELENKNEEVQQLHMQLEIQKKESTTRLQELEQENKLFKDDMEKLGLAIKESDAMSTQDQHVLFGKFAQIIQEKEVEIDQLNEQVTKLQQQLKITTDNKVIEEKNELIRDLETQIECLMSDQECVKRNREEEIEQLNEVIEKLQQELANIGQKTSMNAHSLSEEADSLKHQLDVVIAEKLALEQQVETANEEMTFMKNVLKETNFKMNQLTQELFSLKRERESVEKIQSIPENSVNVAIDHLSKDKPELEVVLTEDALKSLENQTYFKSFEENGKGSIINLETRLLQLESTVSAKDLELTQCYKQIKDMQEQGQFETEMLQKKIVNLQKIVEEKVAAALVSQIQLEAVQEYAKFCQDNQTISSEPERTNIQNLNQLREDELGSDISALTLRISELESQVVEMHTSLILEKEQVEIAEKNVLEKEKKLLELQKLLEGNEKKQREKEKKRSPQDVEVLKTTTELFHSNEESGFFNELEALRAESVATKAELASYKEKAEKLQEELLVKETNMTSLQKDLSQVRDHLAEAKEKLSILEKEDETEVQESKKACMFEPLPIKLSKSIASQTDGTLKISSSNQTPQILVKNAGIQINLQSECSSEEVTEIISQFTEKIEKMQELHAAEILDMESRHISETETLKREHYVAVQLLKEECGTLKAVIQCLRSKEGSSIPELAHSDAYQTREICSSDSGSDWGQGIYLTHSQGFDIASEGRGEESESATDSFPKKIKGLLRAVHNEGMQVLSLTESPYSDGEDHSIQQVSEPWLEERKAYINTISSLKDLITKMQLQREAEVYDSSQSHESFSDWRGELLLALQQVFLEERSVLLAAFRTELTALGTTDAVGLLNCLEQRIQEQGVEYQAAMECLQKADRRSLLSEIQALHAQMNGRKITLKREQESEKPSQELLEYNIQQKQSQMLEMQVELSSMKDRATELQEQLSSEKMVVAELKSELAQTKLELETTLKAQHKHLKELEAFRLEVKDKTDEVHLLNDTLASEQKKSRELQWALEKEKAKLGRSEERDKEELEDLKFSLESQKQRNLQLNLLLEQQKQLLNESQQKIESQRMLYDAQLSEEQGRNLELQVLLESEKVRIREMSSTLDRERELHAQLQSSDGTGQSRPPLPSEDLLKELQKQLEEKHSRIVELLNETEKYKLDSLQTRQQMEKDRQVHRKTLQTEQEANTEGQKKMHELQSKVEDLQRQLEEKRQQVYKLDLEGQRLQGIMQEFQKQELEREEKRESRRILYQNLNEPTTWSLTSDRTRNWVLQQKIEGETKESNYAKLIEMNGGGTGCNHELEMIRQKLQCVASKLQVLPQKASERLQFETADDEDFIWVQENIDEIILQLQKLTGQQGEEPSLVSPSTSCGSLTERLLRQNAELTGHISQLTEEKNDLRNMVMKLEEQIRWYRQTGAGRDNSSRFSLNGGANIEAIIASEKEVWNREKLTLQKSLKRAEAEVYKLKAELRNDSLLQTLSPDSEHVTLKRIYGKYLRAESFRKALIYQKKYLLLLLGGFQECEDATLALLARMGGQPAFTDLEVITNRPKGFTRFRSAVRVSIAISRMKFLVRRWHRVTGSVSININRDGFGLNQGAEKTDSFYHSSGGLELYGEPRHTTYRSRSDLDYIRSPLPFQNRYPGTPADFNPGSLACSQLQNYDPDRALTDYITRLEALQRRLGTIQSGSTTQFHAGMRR

Columns and labels:
AKAP450 [1] = biological target: T1, AKAP450 (UniProt Q99996 1-3907, limits assumed); experiment: anti-FLAG co-immunoprecipitation from HEK293T, immunoblot
T1 construct: Endogenous protein detected by immunoblot; also called AKAP350; CG-NAP
Description: The immunoprecipitated proteins and inputs were analyzed by immunoblotting and quantified. […] Data shown are means±S.D. from three independent experiments. […] The arrow indicates a transfected cell. Boxed areas are enlarged. Scale bars, 5 μm.
(§1) Anti-FLAG immunoprecipitation was performed using anti-FLAG-coupled beads (M2, Sigma) in cell extracts prepared with a lysis buffer (20 mM Tris-HCl, pH7.4, 150 mM NaCl, 1 mM EDTA, 1% Triton X-100, 1 mM dithiothreitol, and the Protease Inhibitor Cocktail). Immunoprecipitated proteins were detected by immunoblotting.

EB1 = biological target: T2, EB1 (UniProt Q15691 2-268); experiment: anti-FLAG co-immunoprecipitation, immunoblot
T2 construct: Endogenous protein detected by immunoblot or mass spectrometry; also called endogenous EB1
T2 sequence (looked up): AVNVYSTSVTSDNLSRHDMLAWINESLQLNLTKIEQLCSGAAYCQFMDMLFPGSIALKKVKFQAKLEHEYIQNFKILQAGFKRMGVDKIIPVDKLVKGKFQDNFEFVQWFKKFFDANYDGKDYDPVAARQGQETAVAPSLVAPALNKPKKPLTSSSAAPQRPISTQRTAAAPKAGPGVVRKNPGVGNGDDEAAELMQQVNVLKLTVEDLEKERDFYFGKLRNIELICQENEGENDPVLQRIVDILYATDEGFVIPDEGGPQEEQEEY
Description: After anti-FLAG immunoprecipitation, the immunoprecipitates and inputs were probed on immunoblots. […] Scale bars, 5 μm.
as §1

AKAP450 [2] = biological target: T1, AKAP450; experiment: co-immunoprecipitation and localization of MMG8 fragments

binding (AKAP450 [1]): binds | binding (EB1): binds | binding (AKAP450 [2]): binds
B1: FLAG-tagged MMG8 fragment 1-389 (protein, not shown: small tags and cut ends)
chain: MKEICRICARELCGNQRRWIFHTASKLNLQVLLSHVLGKDVPRDGKAEFACSKCAFMLDRIYRFDTVIARIEALSIERLQKLLLEKDRLKFCIASMYRKNNDDSGAEIKAGNGTVDMSVLPDARYSALLQEDFAYSGFECWVENEDQIQEPHSCHGSEGPGNRPRRCRGCAALRVADSDYEAICKVPRKVARSISCGPSSRWSTSICTEEPALSEVGPPDLASTKVPPDGESMEEETPGSSVESLDASVQASPPQQKDEETERSAKELGKCDCCSDDQAPQHGCNHKLELALSMIKGLDYKPIQSPRGSRLPIPVKSSLPGAKPGPSMTDGVSSGFLNRSLKPLYKTPVSYPLELSDLQELWDDLCEDYLPLRVQPMTEELLKQQKLNS
